Assay results published in US9174992B2, “Heterobicyclic compounds” (Amgen Inc., priority 2012, dated 2015).
The structures given here were assigned with low confidence; some may be wrong.

The chains behind the UniProt entries cited, without tags or fusion partners.
UniProt Q9Y233, whole entry: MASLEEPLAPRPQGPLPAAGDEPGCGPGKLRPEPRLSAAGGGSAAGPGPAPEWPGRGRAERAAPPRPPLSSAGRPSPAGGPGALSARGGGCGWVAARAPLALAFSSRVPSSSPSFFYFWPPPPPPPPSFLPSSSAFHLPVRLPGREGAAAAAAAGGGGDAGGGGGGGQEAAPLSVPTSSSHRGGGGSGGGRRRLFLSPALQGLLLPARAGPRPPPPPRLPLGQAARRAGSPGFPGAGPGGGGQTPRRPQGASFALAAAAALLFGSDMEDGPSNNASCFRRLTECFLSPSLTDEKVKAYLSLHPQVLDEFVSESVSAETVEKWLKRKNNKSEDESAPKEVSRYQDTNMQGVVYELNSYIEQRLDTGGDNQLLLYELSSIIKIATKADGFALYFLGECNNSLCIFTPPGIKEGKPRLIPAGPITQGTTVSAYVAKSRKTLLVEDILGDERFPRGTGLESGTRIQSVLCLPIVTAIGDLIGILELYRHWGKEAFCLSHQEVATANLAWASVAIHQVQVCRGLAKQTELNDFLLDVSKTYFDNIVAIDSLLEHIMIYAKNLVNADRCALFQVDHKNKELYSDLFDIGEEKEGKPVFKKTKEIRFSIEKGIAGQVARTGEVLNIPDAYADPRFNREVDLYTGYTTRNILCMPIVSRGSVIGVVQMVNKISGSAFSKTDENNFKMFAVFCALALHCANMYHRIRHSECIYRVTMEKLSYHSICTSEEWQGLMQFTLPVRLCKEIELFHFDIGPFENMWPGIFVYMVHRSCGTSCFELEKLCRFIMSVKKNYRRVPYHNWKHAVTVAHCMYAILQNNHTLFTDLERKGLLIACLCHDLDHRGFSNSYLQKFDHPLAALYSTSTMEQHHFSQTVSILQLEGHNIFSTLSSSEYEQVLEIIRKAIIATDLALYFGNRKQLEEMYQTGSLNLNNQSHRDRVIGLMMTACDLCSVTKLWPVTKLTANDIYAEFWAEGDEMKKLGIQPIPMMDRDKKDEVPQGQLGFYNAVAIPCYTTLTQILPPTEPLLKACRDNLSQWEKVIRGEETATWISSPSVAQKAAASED

Target: PDE10A (UniProt Q9Y233)
Assay: PDE10 enzyme inhibition, IMAP TR-FRET assay (Example A, MPDE10A7 Enzyme Activity and Inhibition)
Format: biochemical
Conditions: approximate IC50 value, Table 10

`COc1nc2cccnc2n1C1CC(C(O)c2nc3ccccc3[nH]2)C1` (stereo not shown) was tested, and the IC50 was 0.228 nM.
